Here are results for one substance from PMC7086360.

Sequences of proteins named here, by UniProt entry; tags and fusion partners are left off. Residues count along the entry.
UniProt Q08722, residues 19-323: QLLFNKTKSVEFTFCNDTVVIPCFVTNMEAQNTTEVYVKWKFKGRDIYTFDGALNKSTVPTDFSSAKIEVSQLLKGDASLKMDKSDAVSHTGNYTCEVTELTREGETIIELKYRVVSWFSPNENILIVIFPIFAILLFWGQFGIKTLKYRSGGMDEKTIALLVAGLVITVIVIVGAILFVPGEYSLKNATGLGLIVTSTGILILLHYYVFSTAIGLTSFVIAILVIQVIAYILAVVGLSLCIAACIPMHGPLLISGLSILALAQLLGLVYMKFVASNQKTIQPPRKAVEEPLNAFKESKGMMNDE
UniProt P06733: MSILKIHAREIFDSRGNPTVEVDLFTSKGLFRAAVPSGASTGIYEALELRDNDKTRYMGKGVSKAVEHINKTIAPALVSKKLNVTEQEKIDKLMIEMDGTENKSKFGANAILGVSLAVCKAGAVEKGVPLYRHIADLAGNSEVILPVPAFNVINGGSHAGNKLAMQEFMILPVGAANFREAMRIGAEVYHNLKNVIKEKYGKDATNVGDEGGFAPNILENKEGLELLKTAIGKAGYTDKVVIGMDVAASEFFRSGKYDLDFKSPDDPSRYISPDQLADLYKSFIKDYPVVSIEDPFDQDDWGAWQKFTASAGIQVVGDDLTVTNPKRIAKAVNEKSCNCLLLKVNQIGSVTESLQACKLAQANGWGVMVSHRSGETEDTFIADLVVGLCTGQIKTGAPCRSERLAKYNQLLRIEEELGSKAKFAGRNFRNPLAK

These are yes or no findings as the source states them, for the method shown. Binding seen in cells or lysates may run through a third protein. A yes stands for co-enrichment or nearness to the bait. Other partners may have been found.

For this test, the target named is Flag-CD47 (human) (UniProt Q08722). Briefly: affinity purification with mass spectrometry; HEK293T cells transfected with Flag-CD47, immunoprecipitated with anti-Flag magnetic beads, LC-MS/MS; three independent experiments.

Consider “ENO1 (endogenous, HEK293T) (from UniProt P06733 1-434) (enzyme)”, for which the binding result is “binds”.
